Data on 96 molecules can be found in PubChem BioAssay AID463205 (Broad Institute, 2010).

Hit rate of the full screen: of about 2,400 compounds, about 20 (0.8%) were called active.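 The calls were made as follows: active = AC50 no more than ten times the highest tested concentration, or full inhibition at every dose giving a flat fit (cut at about 30 µM in these data); inconclusive = flat fit with activity between 30% and 70%, or poor-quality invalid fit; inactive = AC50 more than ten times the top tested dose.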 Some of the results follow. Some results are limits rather than exact numbers.

This test in a line: inhibitors of ADP-Glo detection reagents, dose response, artefact control for GSK-3a inhibitor project, biochemical, luminescence, cell-free, homogeneous (AID 463205).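 Also: kinase-free counter-screen against the ADP-Glo detection reagents only; potency is for inhibitors that reduce the luminescence signal.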 The following applies: 5 uM ADP.
Turning to `Fc1ccc(/C=N/Nc2nccnc2Cl)cc1`, the AC50 is inactive: > 30 µM. The figure for `Cc1nc(Nc2ccc(C(=O)O)cc2)nc(Nc2ccc(C(=O)O)cc2)c1[N+](=O)[O-]` is inactive: > 30 µM. Consider `CC(C)(C)NC(=O)/C(=C\c1ccccc1F)NC(=O)c1ccc([N+](=O)[O-])cc1`, for which the AC50 was inactive: > 30 µM. With `COCCNC(=O)Cn1cnc([N+](=O)[O-])n1` the figure was inactive: > 30 µM; with `O=C(NC1C=CS(=O)(=O)C1)c1sc2ccccc2c1Cl` (stereo unspecified), inactive: > 30 µM; with `O=[N+]([O-])c1cccc(-c2ccn[nH]2)c1`, inactive: > 30 µM. The figure for `Cc1nc2ccc3[nH]snc3c2n1` is inactive: > 30 µM. For `NNC(=O)/C(=N/Nc1ccccc1)S(=O)(=O)c1ccc(Cl)cc1`, the AC50 was inactive: > 30 µM. The figure for `CCCOc1ccc(-c2c(C(=O)N/N=C(\C)c3ccncc3)nnn2-c2nonc2N)cc1` is inactive: > 30 µM. With `CCOC(=O)c1cnn(Cc2ccccc2Cl)c1N` the figure was inactive: > 30 µM.

With `Cc1ccc(-c2nnc(N3CCN(C(=O)COc4ccccc4)CC3)c3ccccc23)cc1`, the AC50 is inactive: > 30 µM. As to `Nn1c(SCc2ccccc2F)nnc1-c1ccncc1`, the AC50 is inactive: > 30 µM. The figure for `Cc1csc(NC(=O)C2CCCN(S(=O)(=O)c3cnc[nH]3)C2)n1` (stereo unspecified) is inactive: > 30 µM; for `Cc1ccc(NC(=O)CSCc2ccco2)cc1` it is inactive: > 30 µM; for `Cc1ccc(CNc2nc(N)c([N+](=O)[O-])c(NCc3ccccc3)n2)cc1` it is inactive: > 30 µM. For `COc1cc(-c2cc(=O)c3c(O)cc(O)cc3o2)ccc1O`, the AC50 is inactive: > 30 µM. With `CCOC(=O)c1nnn(-c2nonc2N)c1C`, the AC50 was inactive: > 30 µM. Turning to `Nc1nc(SCCOc2ccccc2)n[nH]1`, the AC50 was inactive: > 30 µM. The figure for `COc1cccc(Cn2nnc(C(=O)Nc3cc(Cl)ccc3OC)c2N)c1` is inactive: > 30 µM.

`O=C(CSc1nnc(SCc2ccc(Cl)cc2)s1)N/N=C/c1ccc(C(=O)O)cc1`: the AC50 was inactive: > 30 µM. In the case of `CCN(CC)c1ccc2ccc(=O)oc2c1`, the AC50 is inactive: > 30 µM. With `CC1(C)Cc2c(sc3c2C2=NCCN2C=N3)CO1` the figure was inactive: > 30 µM. The figure for `COc1cc2sc(C)nc2c2ccccc12` is inactive: > 30 µM; for `COc1ccc(C(=O)OCC(=O)Nc2c(C)n(C)n(-c3ccccc3)c2=O)cc1` it is inactive: > 30 µM. The figure for `CSc1ccc(C2C3(C#N)C(N)=NC4(OCCO4)C23C#N)cc1` (stereo unspecified) is inactive: > 30 µM; for `C[C@H]1CN([C@@H](C)CO)C(=O)c2cccc(NC(=O)c3cnccn3)c2O[C@@H]1CN(C)S(=O)(=O)c1ccc(F)cc1` it is inactive: > 30 µM; for `CCOc1ccc(-c2nonc2NC(=O)c2ccco2)cc1` it is inactive: > 30 µM. Regarding `O=C(CSCc1ccc([N+](=O)[O-])cc1)NN=C1CCCCCC1`, the AC50 was inactive: > 30 µM. The figure for `CC(Oc1ccccc1)C(=O)Nc1nnc(C2CCCCC2)s1` (stereo unspecified) is inactive: > 30 µM; for `Cc1ccccc1CSc1nnc(-c2ccncc2)n1C` it is inactive: > 30 µM; for `COc1ccccc1NC(=O)CCSc1nnc(-c2ccc(O)cc2)o1` it is inactive: > 30 µM. With `O=c1[nH]nnc2sc3c(c12)CCCC3`, the AC50 was inactive: > 30 µM.

With `O=C1/C(=C/c2ccc3c(c2)OCO3)Oc2cc(OCC(=O)N3CCC[C@H]3C(=O)O)ccc21`, the AC50 is inactive: > 30 µM.

As to `Oc1[nH]c2ccccc2c1N=Nc1ccccc1`, the AC50 was inactive: > 30 µM. With `CCOC(=O)c1nc(NCc2cccc(OC)c2)c2ccccc2n1` the figure was inactive: > 30 µM; with `COc1ccc(-c2csc(Nc3ccc(O)cc3)n2)cc1`, inactive: > 30 µM; with `COc1ccc2ccccc2c1/C=N/NC(=O)c1sc(N)c(C#N)c1C`, inactive: > 30 µM. With `O=c1[nH]cnc(O)c1N=Nc1ccccc1` the figure was inactive: > 30 µM; with `COC1(OC)N=C(N)C2(C#N)C(c3cccc(Oc4ccccc4)c3)C12C#N` (stereo unspecified), inactive: > 30 µM; with `O=C(COc1ccccc1F)NC1CC1`, inactive: > 30 µM. The figure for `Cc1c(C)n(CCCN(C)C)c2ncnc(NC3CCCCC3)c12` is inactive: > 30 µM; for `N#CC1=C2SCN(c3ccccc3)CN2C(=O)CC1c1c(Cl)cccc1Cl` (stereo unspecified) it is inactive: > 30 µM; for `Cc1cnn(-c2cc(N/N=C/c3ccccc3)ncn2)c1` it is inactive: > 30 µM. As to `CN1/C(=C/C(=S)NC(=O)C2(C)CC2(Cl)Cl)C(C)(C)c2ccccc21` (stereo unspecified), the AC50 is inactive: > 30 µM. The figure for `O=C(CSc1cccs1)Nc1ccc(Cl)cc1` is inactive: > 30 µM; for `O=C(CSc1ccccc1)Nc1nnc(C2CC2)s1` it is inactive: > 30 µM; for `COc1cccc(OCc2cc(C(=O)NCc3ccc4c(c3)OCO4)no2)c1` it is inactive: > 30 µM. The figure for `O=C(CSc1ccc2nnc(-c3ccccn3)n2n1)N1CCOCC1` is inactive: > 30 µM. With `COC(=O)C1=C(C)Nc2ncnn2C1c1ccccn1` (stereo unspecified) the figure was inactive: > 30 µM. As for `COc1ccc(OCc2nc(N)nc(Nc3ccccc3)n2)cc1`, the AC50 was inactive: > 30 µM. With `N#Cc1c(Nc2ccccc2)c(/C=N/N=C/c2ccccc2)c[nH]c1=O` the figure was inactive: > 30 µM; with `Cc1sc(NC(=O)CSc2nc(N)cc(N)n2)c(C#N)c1C`, inactive: > 30 µM; with `NS(=O)(=O)c1ccc(Nc2nc(-c3ccccc3)cs2)cc1`, inactive: > 30 µM. As for `CN(Cc1c(C(=O)N/N=C/c2ccc(O)cc2)nnn1-c1nonc1N)c1ccccc1`, the AC50 was inactive: > 30 µM. The figure for `Cc1ccc(-c2nc3n(n2)Cc2ccccc2-3)cc1` is inactive: > 30 µM; for `C(=N\Nc1ncnc2sc3c(c12)CCC3)/c1ccncc1` it is inactive: > 30 µM; for `Cc1ccc(-c2nc3ncccn3c2NC2CCCC2)o1` it is inactive: > 30 µM. The figure for `CC1(C)CC(=O)C=C(c2cccc(O)c2)C1` is inactive: > 30 µM; for `CCOC(=O)N1CCC(N2CCN(S(=O)(=O)c3ccc(OC)cc3)CC2)CC1` it is inactive: > 30 µM; for `NC(=O)c1ccsc1NC(=O)C1CC1` it is inactive: > 30 µM. With `CCOC1(OCC)N=C(N)C2(C#N)C(c3cccc(C)c3)C12C#N` (stereo unspecified) the figure was inactive: > 30 µM. On to `O=C(CSc1nc2[nH]ncc2c(=O)n1-c1ccccc1)NCc1cccs1`, for which the AC50 is inactive: > 30 µM. With `O=c1[nH]nc(SCCS(=O)(=O)c2ccc(F)cc2)n1-c1ccccc1` the figure was inactive: > 30 µM. The figure for `COc1ccc(-c2noc(CCC(=O)Nc3nc4ccccc4s3)n2)cc1` is inactive: > 30 µM. The figure for `COc1ccc(CCNc2cc(C)nc(N)n2)cc1OC` is inactive: > 30 µM; for `Cc1cc(C(=O)N/N=C/c2cc(N=Nc3ccccc3)ccc2O)n[nH]1` it is inactive: > 30 µM. Turning to `COc1ccccc1Nc1nc(NCCCCO)nc(N2CCCC2)n1`, the AC50 is inactive: > 30 µM.

With `CCCC(=O)NNC(=O)c1c(O)c2ccccc2[nH]c1=O`, the AC50 was inactive: > 30 µM. With `COc1ccc(C(=O)OCC(=O)Nc2ncc([N+](=O)[O-])s2)cc1OC`, the AC50 is inactive: > 30 µM. With `COc1cccc(-c2cc(C(=O)N3CCN(c4ccccc4OC)CC3)no2)c1` the figure was inactive: > 30 µM; with `COc1cc(O)c(NC(C)=O)c2nonc12`, inactive: > 30 µM; with `C=CCc1cccc(/C=N/n2c(C)nnc2C)c1O`, inactive: > 30 µM.

In the case of `O=C(CSc1nc2nc(-c3cccs3)cc(C(F)(F)F)c2c(=O)[nH]1)Nc1ccc(F)c(F)c1`, the AC50 was inactive: > 30 µM. With `Cc1ccc(CNc2ccc([N+](=O)[O-])cc2C(N)=O)cc1` the figure was inactive: > 30 µM; with `Cc1csc(NC(=O)/C=C/c2ccc3c(c2)OCO3)n1`, inactive: > 30 µM; with `Cc1ccc(CSCCNC(=O)c2ccc(C)cc2)cc1`, inactive: > 30 µM. The figure for `COC(=O)c1cc(OC)nc2ccc(Br)cc12` is inactive: > 30 µM. With `CNc1ccc(/C=C/C(=O)c2ccc3c(c2)OCCO3)cc1[N+](=O)[O-]` the figure was inactive: > 30 µM; with `COC(=O)c1ccc(CSc2nnc(-c3ccncc3)n2Cc2ccccc2)o1`, inactive: > 30 µM. As for `COC(=O)c1ccc(CSc2ccc3nnc(-c4ccc(OC)cc4)n3n2)o1`, the AC50 is inactive: > 30 µM. As for `CC(C)(C)NC(=O)/C(=C/c1ccccc1F)NC(=O)c1ccc([N+](=O)[O-])cc1`, the AC50 is inactive: > 30 µM.

As for `Cn1ccnc1SCC(=O)Nc1ccc(Cl)cn1`, the AC50 is inactive: > 30 µM. `CC(C)(C)c1ccc(CSc2nnc(-c3ccccc3NC(=O)c3ccccc3)o2)cc1`: the AC50 is inactive: > 30 µM.

Regarding `CC1CCN(Cc2c(C(=O)N/N=C/c3ccc(C(C)(C)C)cc3)nnn2-c2nonc2N)CC1`, the AC50 is inactive: > 30 µM. For the molecule `O=c1[nH]c2c(s1)C(c1ccco1)C1C3CCC(C3)C1S2` (stereo unspecified), the AC50 is inactive: > 30 µM. The figure for `C=CCN=C1NN=C(c2ccc3c(c2)OCCO3)CS1` is inactive: > 30 µM; for `Cc1cc2nc(-c3ccc(SCC(=O)NC(C)C)nc3)[nH]c2cc1C` it is inactive: > 30 µM; for `CC(=O)C1C(c2ccc(C)cc2)c2c(n[nH]c2C)CC1(C)O` (stereo unspecified) it is inactive: > 30 µM. With `CCCC(=O)Nc1nn(CCC)c2nc3ccccc3cc12` the figure was inactive: > 30 µM. As for `Cc1ccc(NC(=O)CSCc2nc3c(nnn3Cc3ccc(F)cc3)c(=O)[nH]2)c(C)c1`, the AC50 was inactive: > 30 µM. The figure for `NC(=O)c1cc(Br)cc2c3c([nH]c12)CCCC3` is inactive: > 30 µM. With `Cc1c(C(=O)N2CCN(c3ccccc3)CC2)oc2c(Cl)cccc12` the figure was inactive: > 30 µM; with `COc1ccccc1-n1c(=O)c2c3c(sc2n2c(=S)[nH]nc12)CCC3`, inactive: > 30 µM.

On to `O=[N+]([O-])c1cc(C(F)(F)F)ccc1NCCCN1CCOCC1`, for which the AC50 was inactive: > 30 µM. The figure for `Cc1cccc(/C(N)=N/OC(=O)c2ccc3c(c2)OCO3)c1` is active: 27.3 µM; for `CC(=O)c1sc(NC(=O)c2ccc3c(c2)OCO3)nc1C` it is inactive: > 30 µM.
